Reference: patent US5880261

Chains of the proteins cited; added tags and fusions are not shown. Lines headed by an entry give the natural chain unless they say otherwise; changes in a name come on top.
UniProt Q9R237: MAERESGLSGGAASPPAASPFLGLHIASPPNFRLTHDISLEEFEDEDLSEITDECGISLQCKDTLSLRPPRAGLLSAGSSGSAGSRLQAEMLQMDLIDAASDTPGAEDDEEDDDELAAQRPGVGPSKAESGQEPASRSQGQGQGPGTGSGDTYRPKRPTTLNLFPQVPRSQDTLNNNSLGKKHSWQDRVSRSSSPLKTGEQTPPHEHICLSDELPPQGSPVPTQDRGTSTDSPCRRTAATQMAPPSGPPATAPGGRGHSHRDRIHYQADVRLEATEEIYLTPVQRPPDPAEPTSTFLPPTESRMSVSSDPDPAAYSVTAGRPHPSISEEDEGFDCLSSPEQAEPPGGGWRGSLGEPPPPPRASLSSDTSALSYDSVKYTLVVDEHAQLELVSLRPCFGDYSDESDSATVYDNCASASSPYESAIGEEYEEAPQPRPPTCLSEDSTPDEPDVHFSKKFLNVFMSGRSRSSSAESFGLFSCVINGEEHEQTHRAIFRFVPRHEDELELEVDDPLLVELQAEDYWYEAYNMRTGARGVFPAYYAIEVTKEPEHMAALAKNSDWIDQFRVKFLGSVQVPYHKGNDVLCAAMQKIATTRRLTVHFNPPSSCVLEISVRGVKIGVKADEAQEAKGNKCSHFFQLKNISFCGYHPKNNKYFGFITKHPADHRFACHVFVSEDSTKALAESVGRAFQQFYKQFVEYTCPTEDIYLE

Tests used:
[1] = target: T1, Islet-Brain 1 (IB1), overexpressed in betaTC3 cells (Rattus norvegicus) (UniProt Q9R237); experiment: activity in cells; conditions: +-0.3 SEM over basal, text states 5 fold, protein in cells, protein details: PBKS/IB1 vector, variant of RIPE3, only the site is given
T1 sequence (limits assumed): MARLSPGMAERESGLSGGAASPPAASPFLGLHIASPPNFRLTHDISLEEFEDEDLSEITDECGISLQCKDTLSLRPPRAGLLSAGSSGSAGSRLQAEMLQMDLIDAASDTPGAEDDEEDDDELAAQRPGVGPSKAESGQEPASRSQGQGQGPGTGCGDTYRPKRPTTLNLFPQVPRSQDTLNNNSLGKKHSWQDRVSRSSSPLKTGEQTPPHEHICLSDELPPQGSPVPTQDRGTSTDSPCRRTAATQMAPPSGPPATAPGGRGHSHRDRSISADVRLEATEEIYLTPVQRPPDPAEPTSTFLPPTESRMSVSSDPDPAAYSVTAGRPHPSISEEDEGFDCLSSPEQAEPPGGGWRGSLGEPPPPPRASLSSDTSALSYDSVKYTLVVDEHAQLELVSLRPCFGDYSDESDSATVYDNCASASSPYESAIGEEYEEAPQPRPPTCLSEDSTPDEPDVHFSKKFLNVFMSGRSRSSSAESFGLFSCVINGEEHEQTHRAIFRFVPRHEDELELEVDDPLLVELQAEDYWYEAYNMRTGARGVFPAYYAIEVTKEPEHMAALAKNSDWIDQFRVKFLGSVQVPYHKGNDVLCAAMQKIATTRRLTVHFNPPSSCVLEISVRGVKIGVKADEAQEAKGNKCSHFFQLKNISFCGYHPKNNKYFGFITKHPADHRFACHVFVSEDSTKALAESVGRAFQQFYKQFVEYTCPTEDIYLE

[2] = system: GTII/RIPE3-binding activity including IB1 (betaTC3 nuclear extract) (Mus musculus); experiment: EMSA; conditions: protein in an extract; label: 32P

Sequence	activity on this sequence [1] [fold]	binding result [2]
GATCTGGAAACTGCAGCTTCAGCCCCTCTGGCCATCTGCTGATCCG (double strand) [5x RIPE3-SV40 minimal promoter-luciferase]	2.9	–
GATCTGGAAACTGCAGCTTCAGCCCCTCTGGCCATCTGCTGATCCG (double strand) [RIPE3]	–	binds
GTAAAGGGTGTATTGATTGGATTACCATCAATACTCAGCTTCT (double strand) [GTII]	–	binds

The exact form of at least one protein or probe is not confirmed. For part of these data: Results from cells or extracts need not show a direct contact. For part of these data: Where a protein sequence is shown, tags need not be part of it.
